In the RepoRT retention time repository (doi:10.1021/acs.analchem.1c00972) one finds LC retention time data, which are given here for 1 compound.

SMILES strings stand for the structures.

A short description of series [1]: RP, Waters ACQUITY UPLC BEH C18, 100 × 1 mm, 1.7 µm, 50 °C, 0.3 mL/min, estimated dead time 0.17 min; A: water + 10 mM ammonium bicarbonate; B: 10% water + 90% methanol + 10 mM ammonium bicarbonate; gradient (min/%B) 0/0 15/100 21/100 22/0 30/0. The following applies: stereoisomer not certain.
The nature of series [2]: RP, Waters ACQUITY UPLC BEH C18, 100 × 1 mm, 1.7 µm, 50 °C, 0.3 mL/min, estimated dead time 0.17 min; A: water + 0.1% formic acid + 20 mM ammonium formate; B: methanol + 0.1% formic acid + 20 mM ammonium formate; gradient (min/%B) 0/0 15/100 21/100 22/0 30/0. The settings on record: stereoisomer not certain.

On to `O=C(c1ccccc1)c1ccccc1` [Benzophenone], for which the LC retention time was 14.4 min in series [1] and 14.1 min in series [2].
